Record: PubChem BioAssay AID1259285 (Sanger Institute, 2017)

Screen: 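Kinase knock-downs that reduce colorectal cancer cell viability or act with drugs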 (primary screen)
System: human HCC56 colorectal cancer cells
Reagent: siRNA pool against human genes
Treatment: DMSO vehicle, or anchor drug BYL719 at 1 µM, cetuximab at 5 µg/ml, or trametinib at 10 nM
Measured: 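Replicate-averaged viability relative to non-targeting siRNA, expressed as a robust z-score from controls, plus a synergy score for each of three anchor drugs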
Direction: viability robust z-score, no drug: higher = more viable cells, weaker knock-down effect; viability vs non-targeting pool, no drug: higher = more viable cells; synergy score with BYL719: higher = stronger combined killing with BYL719; synergy score with cetuximab: higher = stronger combined killing with cetuximab; synergy score with trametinib: higher = stronger combined killing with trametinib
Active means: 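a knock-down counts as essential if its viability z-score without drug is under -3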
Calls: active = essential without drug; inactive = no change without drug
In all, the deposit lists 794 reagents; this is a part drawn at random. 20 of them (2.5%) were called active. 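Calls rest on the drug-free arm alone and ignore synergy scores; viability ratios seem to be capped at 1.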 A number with no mark means an inactive call. The record does not give: the amount of reagent, the time to read-out.

| target gene | viability robust z-score, no drug | viability vs non-targeting pool, no drug | synergy score with BYL719 | synergy score with cetuximab | synergy score with trametinib |
| --- | --- | --- | --- | --- | --- |
| TAB1 (TGF-beta activated kinase 1 (MAP3K7) binding protein 1) | 0.458 | 1 | -0.162 | -0.142 | -0.119 |
| AURKA (aurora kinase A) | -0.975 | 0.877 | 0.0374 | 0.0318 | 0.0624 |
| AURKC (aurora kinase C) | 0.458 | 1 | -0.162 | -0.135 | -0.0299 |
| WNK1 (WNK lysine deficient protein kinase 1) | 0.458 | 1 | -0.162 | -0.142 | -0.102 |
| RUNX1 (RUNX family transcription factor 1) | 0.362 | 0.992 | 0.0389 | 0.0732 | 0.0938 |
| PRKY (protein kinase Y-linked (pseudogene)) | 0.458 | 1 | -0.119 | -0.0304 | -0.0774 |
| GUK1 (guanylate kinase 1) | 0.458 | 1 | -0.0337 | -0.138 | 0.0913 |
| LATS2 (large tumor suppressor kinase 2) | 0.458 | 1 | -0.162 | -0.142 | -0.0796 |
| ETNK1 (ethanolamine kinase 1) | 0.458 | 1 | -0.162 | -0.142 | 0.0599 |
| OXSR1 (oxidative stress responsive kinase 1) | 0.458 | 1 | -0.0575 | -0.142 | -0.0729 |
| CDK5 (cyclin dependent kinase 5) | 0.458 | 1 | -0.0333 | -0.0287 | -0.00275 |
| ROR2 (ROR family WNT receptor 2) | 0.458 | 1 | -0.005 | 0.0744 | 0.0813 |
| CDKN2D (cyclin dependent kinase inhibitor 2D) | -2.47 | 0.748 | -0.165 | -0.124 | -0.0334 |

Laid out differently: entries from further up.
target gene,"viability robust z-score, no drug","viability vs non-targeting pool, no drug",synergy score with BYL719,synergy score with cetuximab,synergy score with trametinib
AURKC (aurora kinase C),0.458,1,-0.162,-0.135,-0.0299
WNK1 (WNK lysine deficient protein kinase 1),0.458,1,-0.162,-0.142,-0.102

The results go on.
| target gene | viability robust z-score, no drug | viability vs non-targeting pool, no drug | synergy score with BYL719 | synergy score with cetuximab | synergy score with trametinib |
| --- | --- | --- | --- | --- | --- |
| LIMK1 (LIM domain kinase 1) | 0.458 | 1 | -0.162 | -0.142 | -0.0911 |
| GATA3 (GATA binding protein 3) | -0.875 | 0.886 | -0.152 | -0.0455 | -0.0613 |
| RIPK4 (receptor interacting serine/threonine kinase 4) | 0.458 | 1 | -0.155 | 0.0419 | -0.0516 |
| STK39 (serine/threonine kinase 39) | 0.458 | 1 | -0.0336 | -0.109 | 0.0383 |
| CLK1 (CDC like kinase 1) | 0.458 | 1 | -0.162 | -0.142 | -0.204 |
| FGFR4 (fibroblast growth factor receptor 4) | 0.458 | 1 | -0.162 | -0.142 | -0.0771 |
| DCLK2 (doublecortin like kinase 2) | -2.77 | 0.723 | -0.0505 | -0.0702 | -0.108 |
